Measurements published in publication doi:10.1101/2021.05.09.443305.
No constants are given. Whether binding was seen depends on the method and setting. In cells and extracts the contact can be indirect. Some results given as binding are weak or reduced against the parent protein; the word gives no strength. For part of these data: Where a sequence is shown, tags or fusion partners need not be part of it.

Sequences of proteins named here, by UniProt entry; tags and fusion partners are left off. A change or cut given only in a name is not applied to a line headed by its entry.
UniProt P49841, whole entry: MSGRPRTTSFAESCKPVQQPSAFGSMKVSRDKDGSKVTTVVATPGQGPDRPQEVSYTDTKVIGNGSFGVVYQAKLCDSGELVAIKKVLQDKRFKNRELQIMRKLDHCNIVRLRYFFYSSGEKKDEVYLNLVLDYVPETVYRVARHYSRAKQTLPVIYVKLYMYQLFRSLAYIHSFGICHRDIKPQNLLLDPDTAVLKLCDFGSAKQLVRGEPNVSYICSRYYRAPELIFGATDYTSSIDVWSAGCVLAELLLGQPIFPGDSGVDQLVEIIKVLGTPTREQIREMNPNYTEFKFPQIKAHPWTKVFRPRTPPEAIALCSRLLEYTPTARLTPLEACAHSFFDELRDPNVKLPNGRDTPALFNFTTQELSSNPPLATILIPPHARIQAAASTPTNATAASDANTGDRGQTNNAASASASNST
UniProt Q14258, whole entry: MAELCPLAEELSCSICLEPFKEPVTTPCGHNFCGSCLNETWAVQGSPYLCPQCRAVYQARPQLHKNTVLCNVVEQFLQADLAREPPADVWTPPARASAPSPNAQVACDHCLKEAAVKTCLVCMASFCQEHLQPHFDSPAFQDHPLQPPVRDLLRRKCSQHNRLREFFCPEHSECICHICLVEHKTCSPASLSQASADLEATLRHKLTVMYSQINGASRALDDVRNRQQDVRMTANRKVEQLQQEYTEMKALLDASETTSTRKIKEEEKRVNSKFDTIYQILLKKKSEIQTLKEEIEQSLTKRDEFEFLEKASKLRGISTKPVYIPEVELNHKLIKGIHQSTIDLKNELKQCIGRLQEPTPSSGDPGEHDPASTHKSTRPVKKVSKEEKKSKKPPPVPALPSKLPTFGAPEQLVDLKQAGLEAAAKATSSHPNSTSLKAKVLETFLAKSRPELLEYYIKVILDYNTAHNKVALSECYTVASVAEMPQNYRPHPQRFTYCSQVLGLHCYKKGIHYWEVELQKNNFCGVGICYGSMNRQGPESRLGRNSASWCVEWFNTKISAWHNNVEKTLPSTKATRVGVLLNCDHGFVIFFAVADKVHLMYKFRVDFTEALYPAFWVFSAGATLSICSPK

Tests used:
Assay in all cases: co-IP
[1] = biological target: T1, protein phosphatase 1 regulatory inhibitor subunit 14C (human (endogenous in SUM159PT)) (UniProt Q8TAE6)
T1 sequence: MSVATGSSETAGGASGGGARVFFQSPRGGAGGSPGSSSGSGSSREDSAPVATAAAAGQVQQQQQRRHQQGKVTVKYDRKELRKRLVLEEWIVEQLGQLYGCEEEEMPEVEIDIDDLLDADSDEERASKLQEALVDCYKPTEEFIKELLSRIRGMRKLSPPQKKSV

Flag-PPP1R14C = biological target: T2, Flag-PPP1R14C (UniProt Q8TAE6)
T2 sequence: T1 sequence

HA-GSK3β (S9A) = HA-GSK3β (S9A) (UniProt P49841)
HA-GSK3β = HA-GSK3β (UniProt P49841)

binding [1] | binding (Flag-PPP1R14C) | Substance | also measured
binds |  | glycogen synthase kinase 3 beta (from UniProt P49841 1-420) (enzyme) | 
 | binds | HA-GSK3β (from UniProt P49841 1-420) (enzyme) | 
binds |  | glycogen synthase kinase 3 beta phosphorylated at Ser9 (from UniProt P49841 1-420) (enzyme) | 
 | binds | HA-GSK3β (S9A) (from UniProt P49841 1-420) (enzyme) | 
 | binds | HA-GSK3β phosphorylated at Ser9 (from UniProt P49841 1-420) (enzyme) | 
 | binds | MYC-TRIM25 (from UniProt Q14258 1-630) (enzyme) | binding (HA-GSK3β (S9A)): binds; binding (HA-GSK3β): binds
binds |  | tripartite motif containing 25 (from UniProt Q14258 1-630) (enzyme) | 
